# According to the supplement of paper PMC12067093, “Discovery and optimisation of a covalent ligand for TRIM25 and its application to targeted protein ubiquitination” (Chemical Science, 2025):
# Chains of the proteins cited; added tags and fusions are not shown. Lines headed by an entry give the natural chain unless they say otherwise; changes in a name come on top.
# UniProt Q92499: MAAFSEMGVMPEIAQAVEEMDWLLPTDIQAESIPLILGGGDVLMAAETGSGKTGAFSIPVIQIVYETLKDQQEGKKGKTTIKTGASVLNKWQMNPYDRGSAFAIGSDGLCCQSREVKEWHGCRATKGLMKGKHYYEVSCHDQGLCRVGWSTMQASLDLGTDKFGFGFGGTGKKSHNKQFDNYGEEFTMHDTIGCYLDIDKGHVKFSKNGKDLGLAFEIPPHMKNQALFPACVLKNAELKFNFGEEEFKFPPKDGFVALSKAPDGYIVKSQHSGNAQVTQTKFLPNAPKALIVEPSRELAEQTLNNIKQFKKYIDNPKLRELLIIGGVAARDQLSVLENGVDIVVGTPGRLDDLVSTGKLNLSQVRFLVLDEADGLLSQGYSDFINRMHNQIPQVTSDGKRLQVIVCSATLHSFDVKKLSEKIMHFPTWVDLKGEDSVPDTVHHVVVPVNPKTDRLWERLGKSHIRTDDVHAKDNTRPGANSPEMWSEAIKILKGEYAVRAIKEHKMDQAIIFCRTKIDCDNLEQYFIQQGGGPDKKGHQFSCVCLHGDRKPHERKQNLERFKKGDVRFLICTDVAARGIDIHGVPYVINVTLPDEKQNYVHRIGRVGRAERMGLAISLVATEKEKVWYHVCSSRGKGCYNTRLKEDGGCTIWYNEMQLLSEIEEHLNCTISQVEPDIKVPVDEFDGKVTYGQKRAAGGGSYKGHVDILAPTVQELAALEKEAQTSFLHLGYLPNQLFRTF
# UniProt Q9H4E7, whole entry, looked up: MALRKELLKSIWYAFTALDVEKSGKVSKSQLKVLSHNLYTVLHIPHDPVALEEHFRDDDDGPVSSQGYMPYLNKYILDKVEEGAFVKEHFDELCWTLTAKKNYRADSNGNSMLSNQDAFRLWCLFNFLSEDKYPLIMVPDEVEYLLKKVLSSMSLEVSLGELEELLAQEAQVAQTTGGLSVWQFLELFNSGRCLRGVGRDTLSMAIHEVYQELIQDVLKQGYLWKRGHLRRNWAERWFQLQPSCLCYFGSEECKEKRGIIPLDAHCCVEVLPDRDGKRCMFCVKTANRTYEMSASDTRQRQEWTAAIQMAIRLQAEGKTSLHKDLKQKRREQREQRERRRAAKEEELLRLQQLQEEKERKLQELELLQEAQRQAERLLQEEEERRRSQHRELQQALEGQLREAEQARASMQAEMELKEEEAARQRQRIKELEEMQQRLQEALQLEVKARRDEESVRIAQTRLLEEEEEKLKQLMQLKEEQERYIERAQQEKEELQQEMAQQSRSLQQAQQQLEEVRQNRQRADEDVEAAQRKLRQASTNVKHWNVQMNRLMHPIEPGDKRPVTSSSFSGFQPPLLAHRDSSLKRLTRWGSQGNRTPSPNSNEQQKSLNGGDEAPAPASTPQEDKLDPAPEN
# UniProt P26196: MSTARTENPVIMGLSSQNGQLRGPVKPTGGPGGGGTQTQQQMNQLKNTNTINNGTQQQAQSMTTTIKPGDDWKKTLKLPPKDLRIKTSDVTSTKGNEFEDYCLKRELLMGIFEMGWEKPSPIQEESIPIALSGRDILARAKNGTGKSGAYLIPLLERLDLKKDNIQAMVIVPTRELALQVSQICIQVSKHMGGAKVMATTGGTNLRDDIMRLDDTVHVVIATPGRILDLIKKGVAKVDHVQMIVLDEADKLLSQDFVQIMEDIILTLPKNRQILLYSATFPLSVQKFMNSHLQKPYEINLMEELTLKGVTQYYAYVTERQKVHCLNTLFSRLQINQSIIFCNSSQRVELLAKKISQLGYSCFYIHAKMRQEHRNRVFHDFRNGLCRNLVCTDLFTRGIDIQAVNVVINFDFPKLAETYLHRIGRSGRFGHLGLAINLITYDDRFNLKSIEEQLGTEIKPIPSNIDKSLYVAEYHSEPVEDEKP
# UniProt Q92841: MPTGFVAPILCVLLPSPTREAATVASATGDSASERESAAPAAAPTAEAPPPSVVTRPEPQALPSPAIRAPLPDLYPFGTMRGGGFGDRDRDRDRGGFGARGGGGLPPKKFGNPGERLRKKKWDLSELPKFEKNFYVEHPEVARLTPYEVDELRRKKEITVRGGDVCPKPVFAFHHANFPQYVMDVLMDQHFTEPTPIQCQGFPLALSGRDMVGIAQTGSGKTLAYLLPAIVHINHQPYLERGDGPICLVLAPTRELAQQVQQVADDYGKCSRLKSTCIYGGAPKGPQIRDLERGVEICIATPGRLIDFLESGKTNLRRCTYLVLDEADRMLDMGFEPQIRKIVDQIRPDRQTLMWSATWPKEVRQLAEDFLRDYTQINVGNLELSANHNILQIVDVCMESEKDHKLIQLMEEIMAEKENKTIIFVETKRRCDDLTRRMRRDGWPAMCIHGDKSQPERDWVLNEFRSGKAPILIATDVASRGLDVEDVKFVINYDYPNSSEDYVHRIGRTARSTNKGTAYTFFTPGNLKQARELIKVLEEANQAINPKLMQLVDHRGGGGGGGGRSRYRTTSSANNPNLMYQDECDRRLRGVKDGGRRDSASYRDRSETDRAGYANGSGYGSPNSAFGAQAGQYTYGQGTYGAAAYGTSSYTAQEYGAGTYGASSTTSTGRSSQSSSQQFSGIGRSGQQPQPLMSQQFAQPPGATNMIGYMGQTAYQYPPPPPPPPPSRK
# UniProt P17844: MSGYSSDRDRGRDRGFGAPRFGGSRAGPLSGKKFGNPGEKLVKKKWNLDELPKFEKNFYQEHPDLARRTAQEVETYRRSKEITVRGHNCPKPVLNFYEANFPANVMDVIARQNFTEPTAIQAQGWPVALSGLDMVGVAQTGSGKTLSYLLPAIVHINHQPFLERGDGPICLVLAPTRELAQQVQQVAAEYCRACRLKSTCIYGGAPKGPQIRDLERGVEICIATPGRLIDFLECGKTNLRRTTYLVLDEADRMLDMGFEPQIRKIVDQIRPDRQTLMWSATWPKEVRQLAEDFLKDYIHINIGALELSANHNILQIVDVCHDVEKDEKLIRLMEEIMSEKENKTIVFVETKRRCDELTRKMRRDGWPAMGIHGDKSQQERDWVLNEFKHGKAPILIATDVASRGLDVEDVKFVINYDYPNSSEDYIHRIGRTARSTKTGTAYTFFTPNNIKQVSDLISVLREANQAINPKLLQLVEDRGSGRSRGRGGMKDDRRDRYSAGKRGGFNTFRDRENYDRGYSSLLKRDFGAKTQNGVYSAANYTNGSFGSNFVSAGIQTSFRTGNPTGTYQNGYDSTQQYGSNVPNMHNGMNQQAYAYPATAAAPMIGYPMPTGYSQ
# UniProt P52824: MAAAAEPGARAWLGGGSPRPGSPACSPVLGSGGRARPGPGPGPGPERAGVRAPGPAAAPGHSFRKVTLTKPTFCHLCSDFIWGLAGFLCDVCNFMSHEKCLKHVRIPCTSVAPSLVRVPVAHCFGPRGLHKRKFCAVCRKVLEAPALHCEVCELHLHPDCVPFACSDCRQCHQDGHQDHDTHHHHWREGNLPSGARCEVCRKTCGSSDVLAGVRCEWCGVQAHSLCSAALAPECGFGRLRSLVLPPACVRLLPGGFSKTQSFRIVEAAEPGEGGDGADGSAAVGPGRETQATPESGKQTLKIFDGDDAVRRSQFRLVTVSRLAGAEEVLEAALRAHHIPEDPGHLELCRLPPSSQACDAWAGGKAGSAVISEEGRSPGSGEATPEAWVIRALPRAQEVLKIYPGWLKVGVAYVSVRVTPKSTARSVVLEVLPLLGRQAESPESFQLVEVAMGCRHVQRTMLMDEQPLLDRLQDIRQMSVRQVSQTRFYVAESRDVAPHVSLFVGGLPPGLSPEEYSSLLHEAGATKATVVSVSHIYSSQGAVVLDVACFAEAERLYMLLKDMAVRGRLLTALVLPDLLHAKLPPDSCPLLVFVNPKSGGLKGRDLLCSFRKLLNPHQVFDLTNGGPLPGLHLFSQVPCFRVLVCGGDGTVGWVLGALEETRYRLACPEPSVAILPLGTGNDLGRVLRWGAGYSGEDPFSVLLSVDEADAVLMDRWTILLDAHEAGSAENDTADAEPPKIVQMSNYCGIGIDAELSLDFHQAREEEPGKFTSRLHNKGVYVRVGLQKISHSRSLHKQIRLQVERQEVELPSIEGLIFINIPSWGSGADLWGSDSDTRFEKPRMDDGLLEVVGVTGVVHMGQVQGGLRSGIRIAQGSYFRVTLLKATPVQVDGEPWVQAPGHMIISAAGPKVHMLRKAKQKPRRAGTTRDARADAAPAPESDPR
# UniProt Q16531, whole entry, looked up: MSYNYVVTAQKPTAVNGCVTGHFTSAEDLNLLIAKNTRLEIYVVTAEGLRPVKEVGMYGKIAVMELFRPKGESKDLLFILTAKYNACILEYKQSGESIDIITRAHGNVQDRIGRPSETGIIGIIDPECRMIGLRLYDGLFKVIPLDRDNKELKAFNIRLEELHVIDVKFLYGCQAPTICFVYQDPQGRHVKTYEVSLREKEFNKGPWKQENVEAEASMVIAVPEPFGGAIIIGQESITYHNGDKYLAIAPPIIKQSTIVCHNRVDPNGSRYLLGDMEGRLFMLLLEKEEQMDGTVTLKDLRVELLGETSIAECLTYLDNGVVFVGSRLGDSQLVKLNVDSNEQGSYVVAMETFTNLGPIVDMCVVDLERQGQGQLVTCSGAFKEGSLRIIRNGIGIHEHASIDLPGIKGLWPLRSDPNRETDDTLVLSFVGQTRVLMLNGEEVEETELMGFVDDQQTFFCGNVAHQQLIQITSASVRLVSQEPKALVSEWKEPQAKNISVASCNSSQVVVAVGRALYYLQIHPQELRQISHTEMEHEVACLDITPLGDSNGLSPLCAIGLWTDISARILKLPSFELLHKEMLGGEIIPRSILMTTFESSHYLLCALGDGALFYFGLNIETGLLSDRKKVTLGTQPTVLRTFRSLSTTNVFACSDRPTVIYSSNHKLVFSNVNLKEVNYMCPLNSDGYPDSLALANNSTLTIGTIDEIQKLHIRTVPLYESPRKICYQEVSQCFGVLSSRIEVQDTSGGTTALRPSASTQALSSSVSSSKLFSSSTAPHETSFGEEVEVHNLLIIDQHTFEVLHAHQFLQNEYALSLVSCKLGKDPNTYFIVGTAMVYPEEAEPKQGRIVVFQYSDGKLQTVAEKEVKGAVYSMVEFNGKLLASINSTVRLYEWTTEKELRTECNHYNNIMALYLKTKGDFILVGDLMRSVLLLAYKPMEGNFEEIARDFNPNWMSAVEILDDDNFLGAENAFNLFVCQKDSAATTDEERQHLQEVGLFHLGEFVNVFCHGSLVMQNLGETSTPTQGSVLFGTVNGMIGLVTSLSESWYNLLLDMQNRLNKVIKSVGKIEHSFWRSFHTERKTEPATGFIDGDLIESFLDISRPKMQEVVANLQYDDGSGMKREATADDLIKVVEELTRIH
# UniProt Q7L014: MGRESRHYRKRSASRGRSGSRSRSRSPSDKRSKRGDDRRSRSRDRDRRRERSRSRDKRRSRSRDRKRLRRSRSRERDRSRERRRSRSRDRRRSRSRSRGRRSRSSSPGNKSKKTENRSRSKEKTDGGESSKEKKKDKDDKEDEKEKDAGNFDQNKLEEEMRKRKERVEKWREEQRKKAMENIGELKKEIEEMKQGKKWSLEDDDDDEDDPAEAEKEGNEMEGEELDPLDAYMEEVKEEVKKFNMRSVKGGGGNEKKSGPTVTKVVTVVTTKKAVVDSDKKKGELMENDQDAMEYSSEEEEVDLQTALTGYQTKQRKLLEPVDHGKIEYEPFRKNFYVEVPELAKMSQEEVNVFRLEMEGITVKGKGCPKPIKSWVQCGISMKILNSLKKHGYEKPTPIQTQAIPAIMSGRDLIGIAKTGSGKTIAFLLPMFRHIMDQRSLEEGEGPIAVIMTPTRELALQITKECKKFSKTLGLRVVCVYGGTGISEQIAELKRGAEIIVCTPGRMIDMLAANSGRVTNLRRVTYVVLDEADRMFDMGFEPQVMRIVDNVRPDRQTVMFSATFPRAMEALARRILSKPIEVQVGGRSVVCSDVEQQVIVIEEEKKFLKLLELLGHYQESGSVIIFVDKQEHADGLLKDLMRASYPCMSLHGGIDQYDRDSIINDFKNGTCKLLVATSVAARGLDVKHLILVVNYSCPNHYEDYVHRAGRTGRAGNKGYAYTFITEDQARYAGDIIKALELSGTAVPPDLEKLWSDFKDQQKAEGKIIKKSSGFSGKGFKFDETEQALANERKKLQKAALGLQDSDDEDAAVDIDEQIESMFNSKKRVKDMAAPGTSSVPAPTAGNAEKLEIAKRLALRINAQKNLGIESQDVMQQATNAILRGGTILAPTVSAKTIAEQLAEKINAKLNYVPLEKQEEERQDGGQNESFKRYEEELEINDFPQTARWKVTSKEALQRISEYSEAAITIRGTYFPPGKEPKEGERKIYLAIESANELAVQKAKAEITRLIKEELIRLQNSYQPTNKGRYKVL
# The other results are listed elsewhere or left out.
# Compound: Cc1cc(ccc1-c1ccccc1)C(=O)N1CCCN(CC1)C(=O)CCl [compound 10]
# Assay: probe-labelled cysteine peptide fold change vs DMSO (competition) (log2 fold change); higher = less target engagement (more negative = stronger competition)
# Conditions: THP-1, incubation time: 4 h
# 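Also: competitive profiling in live THP-1 cells: cysteine peptides tagged with an iodoacetamide desthiobiotin (IA-DTB) probe, intensity after compound treatment relative to DMSO-treated cells.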
Target,probe-labelled cysteine peptide fold change (10 µM),probe-labelled cysteine peptide fold change (50 µM)
DDX1_Q92499_231_NQALFPACVLK (UniProt Q92499),-0.209,0.0128
DGKZ_Q13574_1050_YLLDHAPPEILDAVEENGETCLHQAAALGQR (UniProt Q13574),0.0481,0.0635
DEF6_Q9H4E7_267_GIIPLDAHCCVEVLPDR (UniProt Q9H4E7),0.0885,-0.00985
DDX6_P26196_324_VHCLNTLFSR (UniProt P26196),0.111,0.219
DDX41_Q9UJV9_568_QKVPPVLQVLHCGDESMLDIGGER (UniProt Q9UJV9),-0.0733,-0.298
DEF6_Q9H4E7_279_CMFCVK (UniProt Q9H4E7),0.118,-0.332
DDX17_Q92841_431_CDDLTR (UniProt Q92841),-0.174,0.402
DDX5_P17844_354_RCDELTR (UniProt P17844),0.117,0.392
DDX5_P17844_191_ELAQQVQQVAAEYCR (UniProt P17844),0.115,-0.161
DGKQ_P52824_638_LLNPHQVFDLTNGGPLPGLHLFSQVPCFR (UniProt P52824),-0.334,-0.941
DDB1_Q16531_725_KICYQEVSQCFGVLSSR (UniProt Q16531),-0.0379,-0.426
DDX60L_Q5H9U9_938_CLNFLQDHSYK (UniProt Q5H9U9),-0.0982,0.109
DDX5_P17844_354_CDELTR (UniProt P17844),-0.126,0.21
DDX5_P17844_170_GDGPICLVLAPTR (UniProt P17844),0.398,0.233
DDX46_Q7L014_590_SVVCSDVEQQVIVIEEEK (UniProt Q7L014),-0.0827,-0.0152

# An excerpt of these results, with bars between the fields:
Target | probe-labelled cysteine peptide fold change (10 µM) | probe-labelled cysteine peptide fold change (50 µM)
DDX5_P17844_170_GDGPICLVLAPTR (UniProt P17844) | 0.398 | 0.233
DDX46_Q7L014_590_SVVCSDVEQQVIVIEEEK (UniProt Q7L014) | -0.0827 | -0.0152
